Laboratory results: paper PMC10364420
Results are given in words; binding and its absence hold for the method and conditions named. Binding seen in cells or lysates may run through a third protein. Some entries that bind do so weakly or less than the wild type. For part of these data: Where a sequence is shown, tags or fusion partners need not be part of it.

T1: protein disulfide isomerase family a member 4 (PDIA4), endogenous (human (endogenous in HUVECs)) (UniProt P13667)
T1 sequence: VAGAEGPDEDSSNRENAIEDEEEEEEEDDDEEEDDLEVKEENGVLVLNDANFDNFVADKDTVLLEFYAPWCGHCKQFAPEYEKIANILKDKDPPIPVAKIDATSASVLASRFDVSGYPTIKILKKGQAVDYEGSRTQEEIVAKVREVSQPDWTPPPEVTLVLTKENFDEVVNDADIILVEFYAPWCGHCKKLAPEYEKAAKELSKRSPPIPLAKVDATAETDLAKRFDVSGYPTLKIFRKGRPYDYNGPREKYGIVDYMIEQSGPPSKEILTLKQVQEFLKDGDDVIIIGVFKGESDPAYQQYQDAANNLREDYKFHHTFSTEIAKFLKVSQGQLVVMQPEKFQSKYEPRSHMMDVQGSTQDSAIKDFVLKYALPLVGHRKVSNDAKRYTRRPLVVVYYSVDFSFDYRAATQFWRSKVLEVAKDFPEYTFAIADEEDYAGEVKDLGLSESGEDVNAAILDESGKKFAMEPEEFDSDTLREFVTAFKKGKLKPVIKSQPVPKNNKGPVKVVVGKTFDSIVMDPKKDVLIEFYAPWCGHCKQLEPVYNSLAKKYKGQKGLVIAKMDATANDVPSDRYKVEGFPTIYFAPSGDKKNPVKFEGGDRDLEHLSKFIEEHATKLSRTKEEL

T2: PDIA4 overexpressed from lentiviral vector pGC-FU/GV350 (Ubi-MCS-3FLAG-SV40-Neomycin) (UniProt P13667)
T2 sequence: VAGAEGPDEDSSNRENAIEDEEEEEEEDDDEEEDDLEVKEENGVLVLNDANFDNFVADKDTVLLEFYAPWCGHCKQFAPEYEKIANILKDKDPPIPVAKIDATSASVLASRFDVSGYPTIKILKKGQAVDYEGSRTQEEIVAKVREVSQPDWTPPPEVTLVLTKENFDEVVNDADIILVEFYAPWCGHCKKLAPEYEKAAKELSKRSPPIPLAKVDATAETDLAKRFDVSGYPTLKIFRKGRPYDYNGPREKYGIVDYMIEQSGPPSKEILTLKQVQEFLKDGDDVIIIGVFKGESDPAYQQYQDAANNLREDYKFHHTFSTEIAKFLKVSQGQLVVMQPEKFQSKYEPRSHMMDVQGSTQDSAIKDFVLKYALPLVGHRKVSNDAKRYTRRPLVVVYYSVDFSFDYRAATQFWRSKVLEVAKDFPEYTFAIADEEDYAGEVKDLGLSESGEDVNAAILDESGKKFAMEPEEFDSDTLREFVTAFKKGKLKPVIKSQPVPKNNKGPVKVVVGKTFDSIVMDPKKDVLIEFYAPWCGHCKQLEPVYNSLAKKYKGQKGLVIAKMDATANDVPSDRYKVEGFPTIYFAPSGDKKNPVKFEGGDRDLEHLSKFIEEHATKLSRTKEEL

B1: DNA damage-inducible transcript 4 (DDIT4), endogenous (protein, UniProt Q9NX09 1-232)
chain: MPSLWDRFSSSSTSSSPSSLPRTPTPDRPPRSAWGSATREEGFDRSTSLESSDCESLDSSNSGFGPEEDTAYLDGVSLPDFELLSDPEDEHLCANLMQLLQESLAQARLGSRRPARLLMPSQLVSQVGKELLRLAYSEPCGLRGALLDVCVEQGKSCHSVGQLALDPSLVPTFQLTLVLRLDSRLWPKIQGLFSSANSPFLPGFSQSLTLSTGFRVIKKKLYSSEQLLIEEC
B2: DDIT4 overexpressed from pcDNA3.1-DDIT4 (protein, UniProt Q9NX09 1-232)
chain: MPSLWDRFSSSSTSSSPSSLPRTPTPDRPPRSAWGSATREEGFDRSTSLESSDCESLDSSNSGFGPEEDTAYLDGVSLPDFELLSDPEDEHLCANLMQLLQESLAQARLGSRRPARLLMPSQLVSQVGKELLRLAYSEPCGLRGALLDVCVEQGKSCHSVGQLALDPSLVPTFQLTLVLRLDSRLWPKIQGLFSSANSPFLPGFSQSLTLSTGFRVIKKKLYSSEQLLIEEC

Tests used:
[1] = biological target: T1, protein disulfide isomerase family a member 4 (PDIA4), endogenous (human (endogenous in HUVECs)); assay: co-IP; endogenous proteins in HUVEC lysate; supernatants incubated with anti-PDIA4, anti-DDIT4 or anti-IgG at 4 °C overnight, protein A/G-agarose beads 2 h, western blotting
[2] = biological target: T2, PDIA4 overexpressed from lentiviral vector pGC-FU/GV350 (Ubi-MCS-3FLAG-SV40-Neomycin); assay: co-IP; lysate of HUVECs transfected with PDIA4 or DDIT4 overexpression; anti-PDIA4, anti-DDIT4 or anti-IgG at 4 °C overnight, protein A/G-agarose beads 2 h, western blotting
[3] = biological target: T1, protein disulfide isomerase family a member 4 (PDIA4), endogenous (human (endogenous in HUVECs)); assay: as above

Binder	binding [1]	binding [2]	binding [3]
B1	binds	binds	
B2			binds
